The supplement of paper PMC10849652
The other results are listed elsewhere or left out.

Sequences of proteins named here, by UniProt entry; tags and fusion partners are left off. A change or cut given only in a name is not applied to a line headed by its entry.
UniProt Q9H553: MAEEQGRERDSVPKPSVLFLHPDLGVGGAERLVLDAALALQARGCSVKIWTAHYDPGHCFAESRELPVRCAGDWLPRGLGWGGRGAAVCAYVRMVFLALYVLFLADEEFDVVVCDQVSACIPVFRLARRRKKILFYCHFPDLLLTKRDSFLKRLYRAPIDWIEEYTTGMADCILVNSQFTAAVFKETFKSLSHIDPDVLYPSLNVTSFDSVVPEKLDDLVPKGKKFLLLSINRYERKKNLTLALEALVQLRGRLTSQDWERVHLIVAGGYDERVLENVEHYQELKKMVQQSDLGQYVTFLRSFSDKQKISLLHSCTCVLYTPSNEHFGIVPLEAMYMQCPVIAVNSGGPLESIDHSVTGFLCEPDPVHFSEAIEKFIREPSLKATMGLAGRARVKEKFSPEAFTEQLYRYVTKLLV
UniProt P00352: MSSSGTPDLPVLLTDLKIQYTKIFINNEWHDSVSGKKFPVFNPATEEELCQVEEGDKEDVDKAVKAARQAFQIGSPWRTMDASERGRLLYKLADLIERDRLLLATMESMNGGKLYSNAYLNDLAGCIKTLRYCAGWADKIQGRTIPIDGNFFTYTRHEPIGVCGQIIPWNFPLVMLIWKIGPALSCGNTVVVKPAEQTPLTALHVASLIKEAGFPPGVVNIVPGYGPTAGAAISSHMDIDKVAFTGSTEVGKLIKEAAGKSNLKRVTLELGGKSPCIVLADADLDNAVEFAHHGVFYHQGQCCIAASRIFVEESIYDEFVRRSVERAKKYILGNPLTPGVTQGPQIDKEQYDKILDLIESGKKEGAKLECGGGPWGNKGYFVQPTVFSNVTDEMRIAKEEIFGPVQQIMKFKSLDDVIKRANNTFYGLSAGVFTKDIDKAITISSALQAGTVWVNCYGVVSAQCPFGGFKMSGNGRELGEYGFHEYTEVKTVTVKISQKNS
UniProt Q96SZ5, whole entry, looked up: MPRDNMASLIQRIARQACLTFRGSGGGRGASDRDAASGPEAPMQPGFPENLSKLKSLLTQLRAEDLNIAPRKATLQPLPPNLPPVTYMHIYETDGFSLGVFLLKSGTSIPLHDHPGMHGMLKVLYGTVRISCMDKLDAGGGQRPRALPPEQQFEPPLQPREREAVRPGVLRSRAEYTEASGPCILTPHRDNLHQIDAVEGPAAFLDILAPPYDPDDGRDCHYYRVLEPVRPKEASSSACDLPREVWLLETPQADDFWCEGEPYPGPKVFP
UniProt P35573: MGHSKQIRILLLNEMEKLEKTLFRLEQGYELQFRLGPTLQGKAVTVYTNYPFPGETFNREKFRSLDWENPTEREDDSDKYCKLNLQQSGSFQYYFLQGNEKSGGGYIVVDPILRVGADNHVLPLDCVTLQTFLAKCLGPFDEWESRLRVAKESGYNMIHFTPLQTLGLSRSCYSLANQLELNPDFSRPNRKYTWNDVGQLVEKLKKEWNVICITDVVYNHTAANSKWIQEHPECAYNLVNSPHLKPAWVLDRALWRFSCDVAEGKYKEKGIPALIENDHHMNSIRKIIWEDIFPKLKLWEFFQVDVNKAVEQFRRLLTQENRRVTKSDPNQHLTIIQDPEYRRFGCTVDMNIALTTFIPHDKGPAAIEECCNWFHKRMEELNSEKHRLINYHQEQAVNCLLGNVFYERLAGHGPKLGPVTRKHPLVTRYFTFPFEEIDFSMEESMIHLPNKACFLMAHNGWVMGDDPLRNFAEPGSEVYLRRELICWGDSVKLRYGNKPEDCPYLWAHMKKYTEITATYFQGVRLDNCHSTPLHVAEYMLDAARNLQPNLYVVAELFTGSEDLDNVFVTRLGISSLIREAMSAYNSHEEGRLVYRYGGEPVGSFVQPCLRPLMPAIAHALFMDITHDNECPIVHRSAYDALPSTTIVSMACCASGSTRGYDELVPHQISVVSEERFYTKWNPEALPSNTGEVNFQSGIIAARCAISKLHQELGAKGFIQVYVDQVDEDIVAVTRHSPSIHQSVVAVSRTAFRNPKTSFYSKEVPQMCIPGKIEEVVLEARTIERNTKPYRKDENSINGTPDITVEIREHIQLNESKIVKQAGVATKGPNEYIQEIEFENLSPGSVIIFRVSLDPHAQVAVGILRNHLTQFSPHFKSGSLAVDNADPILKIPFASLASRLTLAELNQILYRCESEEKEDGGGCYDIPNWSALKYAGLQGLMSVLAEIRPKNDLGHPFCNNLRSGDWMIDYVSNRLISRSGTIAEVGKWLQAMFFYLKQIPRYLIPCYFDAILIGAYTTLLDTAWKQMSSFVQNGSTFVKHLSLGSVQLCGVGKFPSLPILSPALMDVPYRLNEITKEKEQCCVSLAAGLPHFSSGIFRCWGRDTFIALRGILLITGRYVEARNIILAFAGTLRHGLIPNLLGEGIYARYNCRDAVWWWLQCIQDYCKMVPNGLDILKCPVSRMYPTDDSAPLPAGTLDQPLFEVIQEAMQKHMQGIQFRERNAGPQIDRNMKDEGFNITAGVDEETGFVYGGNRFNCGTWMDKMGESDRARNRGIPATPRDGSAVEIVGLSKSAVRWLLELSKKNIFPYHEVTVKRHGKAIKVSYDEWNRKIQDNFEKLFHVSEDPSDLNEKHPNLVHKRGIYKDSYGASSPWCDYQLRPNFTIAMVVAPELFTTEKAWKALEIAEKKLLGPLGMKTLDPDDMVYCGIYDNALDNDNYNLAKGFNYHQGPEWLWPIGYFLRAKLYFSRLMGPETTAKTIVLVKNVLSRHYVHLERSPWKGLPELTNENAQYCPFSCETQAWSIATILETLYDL
UniProt P00568: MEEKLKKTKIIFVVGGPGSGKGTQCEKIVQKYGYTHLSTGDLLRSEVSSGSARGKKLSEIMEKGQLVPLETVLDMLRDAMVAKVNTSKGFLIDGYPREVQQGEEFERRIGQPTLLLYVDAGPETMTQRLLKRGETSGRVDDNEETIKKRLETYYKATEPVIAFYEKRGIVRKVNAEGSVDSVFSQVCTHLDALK
UniProt P30038: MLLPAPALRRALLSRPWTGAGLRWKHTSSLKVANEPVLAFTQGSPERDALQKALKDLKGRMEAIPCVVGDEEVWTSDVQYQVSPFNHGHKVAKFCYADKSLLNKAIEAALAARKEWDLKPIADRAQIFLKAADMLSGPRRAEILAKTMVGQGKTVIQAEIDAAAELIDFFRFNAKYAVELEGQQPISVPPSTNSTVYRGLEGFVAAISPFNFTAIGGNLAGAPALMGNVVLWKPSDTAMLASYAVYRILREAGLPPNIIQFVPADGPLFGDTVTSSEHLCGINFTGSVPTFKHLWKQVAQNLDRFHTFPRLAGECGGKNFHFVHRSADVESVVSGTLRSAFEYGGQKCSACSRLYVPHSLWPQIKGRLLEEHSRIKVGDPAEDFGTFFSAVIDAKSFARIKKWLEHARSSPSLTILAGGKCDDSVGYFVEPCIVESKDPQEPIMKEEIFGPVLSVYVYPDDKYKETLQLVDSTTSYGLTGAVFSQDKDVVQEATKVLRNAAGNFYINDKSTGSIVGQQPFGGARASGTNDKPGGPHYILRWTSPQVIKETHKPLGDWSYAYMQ
UniProt Q13155: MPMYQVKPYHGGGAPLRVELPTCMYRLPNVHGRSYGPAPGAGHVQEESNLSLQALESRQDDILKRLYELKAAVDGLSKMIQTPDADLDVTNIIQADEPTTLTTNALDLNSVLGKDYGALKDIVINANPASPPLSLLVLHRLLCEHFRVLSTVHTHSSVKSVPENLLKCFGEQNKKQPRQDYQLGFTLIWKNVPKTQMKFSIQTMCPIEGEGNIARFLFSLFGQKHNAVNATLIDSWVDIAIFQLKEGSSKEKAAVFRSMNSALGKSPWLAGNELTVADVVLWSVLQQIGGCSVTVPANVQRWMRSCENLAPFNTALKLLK
UniProt Q96Q83: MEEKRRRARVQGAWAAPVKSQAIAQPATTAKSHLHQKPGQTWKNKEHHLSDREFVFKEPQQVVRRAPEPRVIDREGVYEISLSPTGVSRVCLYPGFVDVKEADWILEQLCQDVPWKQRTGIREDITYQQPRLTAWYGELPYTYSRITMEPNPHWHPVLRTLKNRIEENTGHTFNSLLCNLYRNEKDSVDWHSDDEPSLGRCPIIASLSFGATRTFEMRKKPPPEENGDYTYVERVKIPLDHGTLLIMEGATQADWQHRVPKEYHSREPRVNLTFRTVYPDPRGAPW
UniProt P04075: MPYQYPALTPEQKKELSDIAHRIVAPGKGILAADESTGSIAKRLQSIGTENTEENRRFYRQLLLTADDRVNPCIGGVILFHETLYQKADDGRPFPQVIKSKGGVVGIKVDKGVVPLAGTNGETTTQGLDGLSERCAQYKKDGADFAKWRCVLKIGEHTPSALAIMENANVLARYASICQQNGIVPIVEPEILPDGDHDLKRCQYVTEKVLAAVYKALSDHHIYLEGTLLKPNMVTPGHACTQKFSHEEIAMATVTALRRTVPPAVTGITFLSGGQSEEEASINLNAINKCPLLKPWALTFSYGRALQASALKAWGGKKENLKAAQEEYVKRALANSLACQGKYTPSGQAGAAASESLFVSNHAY
UniProt P27144: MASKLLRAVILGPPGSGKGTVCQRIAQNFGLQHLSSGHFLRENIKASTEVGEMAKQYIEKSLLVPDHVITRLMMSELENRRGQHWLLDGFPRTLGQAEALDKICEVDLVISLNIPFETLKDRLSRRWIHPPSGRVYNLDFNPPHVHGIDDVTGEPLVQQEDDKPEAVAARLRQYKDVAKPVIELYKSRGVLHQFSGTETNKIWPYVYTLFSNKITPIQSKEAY
UniProt O94788: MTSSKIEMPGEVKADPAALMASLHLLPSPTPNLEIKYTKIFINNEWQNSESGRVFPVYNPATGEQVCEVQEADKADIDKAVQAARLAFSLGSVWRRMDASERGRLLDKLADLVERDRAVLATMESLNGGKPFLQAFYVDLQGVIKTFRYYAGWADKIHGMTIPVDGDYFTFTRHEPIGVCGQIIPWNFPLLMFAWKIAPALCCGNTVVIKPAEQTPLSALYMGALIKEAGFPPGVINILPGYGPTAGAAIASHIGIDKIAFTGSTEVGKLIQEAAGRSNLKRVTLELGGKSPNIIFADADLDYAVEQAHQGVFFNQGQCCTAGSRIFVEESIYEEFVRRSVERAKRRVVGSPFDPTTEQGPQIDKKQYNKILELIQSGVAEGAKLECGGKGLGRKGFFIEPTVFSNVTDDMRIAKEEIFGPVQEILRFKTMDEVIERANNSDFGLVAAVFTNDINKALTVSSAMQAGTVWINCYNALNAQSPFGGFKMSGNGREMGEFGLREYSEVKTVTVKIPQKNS
UniProt Q9BVK2: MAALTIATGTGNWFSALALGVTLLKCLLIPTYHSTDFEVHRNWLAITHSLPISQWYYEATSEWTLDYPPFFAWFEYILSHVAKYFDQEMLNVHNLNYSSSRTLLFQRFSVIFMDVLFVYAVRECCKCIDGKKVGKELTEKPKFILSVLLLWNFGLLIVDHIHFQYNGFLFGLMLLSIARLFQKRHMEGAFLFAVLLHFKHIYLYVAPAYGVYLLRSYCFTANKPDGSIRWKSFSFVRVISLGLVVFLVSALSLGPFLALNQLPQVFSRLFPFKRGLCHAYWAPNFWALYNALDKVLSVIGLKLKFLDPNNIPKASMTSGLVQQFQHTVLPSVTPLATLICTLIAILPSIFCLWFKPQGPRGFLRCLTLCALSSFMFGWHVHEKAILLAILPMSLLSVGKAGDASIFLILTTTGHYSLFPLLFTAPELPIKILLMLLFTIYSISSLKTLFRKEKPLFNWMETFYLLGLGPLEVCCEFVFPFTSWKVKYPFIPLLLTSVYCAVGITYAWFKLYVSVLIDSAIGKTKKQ
UniProt P23526: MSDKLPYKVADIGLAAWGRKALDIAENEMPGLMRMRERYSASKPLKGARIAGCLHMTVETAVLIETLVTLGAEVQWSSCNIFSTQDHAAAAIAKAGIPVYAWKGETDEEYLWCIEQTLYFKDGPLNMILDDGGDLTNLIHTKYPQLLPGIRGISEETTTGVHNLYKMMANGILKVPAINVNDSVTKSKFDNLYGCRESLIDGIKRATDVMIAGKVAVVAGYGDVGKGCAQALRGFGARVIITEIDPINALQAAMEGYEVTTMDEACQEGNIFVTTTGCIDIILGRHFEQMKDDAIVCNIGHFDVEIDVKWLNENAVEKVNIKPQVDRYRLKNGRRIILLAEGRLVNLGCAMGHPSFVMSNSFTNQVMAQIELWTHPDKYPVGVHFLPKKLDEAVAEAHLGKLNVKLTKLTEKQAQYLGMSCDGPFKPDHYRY
UniProt P13716: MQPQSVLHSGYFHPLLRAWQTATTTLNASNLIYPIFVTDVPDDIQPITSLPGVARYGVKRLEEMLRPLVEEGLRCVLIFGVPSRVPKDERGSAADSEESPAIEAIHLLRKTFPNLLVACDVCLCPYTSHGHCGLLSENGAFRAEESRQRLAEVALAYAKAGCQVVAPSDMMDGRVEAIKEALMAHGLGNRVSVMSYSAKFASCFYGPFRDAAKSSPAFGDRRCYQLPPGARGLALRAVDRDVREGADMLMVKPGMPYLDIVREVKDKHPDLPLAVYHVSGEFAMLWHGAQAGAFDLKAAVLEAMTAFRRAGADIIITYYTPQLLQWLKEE

Columns and labels:
Test in all cases: log2 fold change, soluble protein after heating vs DMSO (PISA); higher = thermal stabilisation; K562 cells, 10 uM, 30 min; active = over 0.2 and 3.5 SD of the protein, either way, in both replicates (recomputed)
[1] = compound: CC1=C(C=C(C=C1)NC(=O)C2=CC(=CC=C2)C(C)(C)C#N)NC3=CC4=C(C=C3)N=CN(C4=O)C
Summary of the method: (§1)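 K562 cells at 2×10^6 cells/mL were treated with 10 μM compound for 30 min. Aliquots were heated for 3 min across 48°C-58°C, pooled, and extracted in PBS with 0.5% NP-40 at 4°C; soluble protein was the supernatant after 21,000xg for 90 min. Soluble protein was quantified by TMTpro 16plex LC-MS/MS with channel sums equalised, and reported as log2 fold change in thermal stability against DMSO controls, with values from duplicates.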

[2] = compound: CC1=C(C=C(C=C1)NC(=O)C2=CC(=CC=C2)N(C)C)NC(=O)C3=CC=C(C=C3)O
Summary of the method: as §1

[3] = compound: CC1=CC=C(C=C1)SC2=C3C=C(SC3=CN=C2)C(=O)N
Summary of the method: as §1

[4] = compound: CC1=NC(=CC=C1)C2=C(N=C(N2)C(C)(C)C)C3=CC4=NC=CN=C4C=C3
Summary of the method: as §1

Nexturastat A = compound: CCCCN(Cc1ccc(C(=O)NO)cc1)C(=O)Nc1ccccc1 [Nexturastat A]
Summary of the method: as §1

vemurafenib = compound: CCCS(=O)(=O)Nc1ccc(F)c(C(=O)c2c[nH]c3ncc(-c4ccc(Cl)cc4)cc23)c1F [vemurafenib]
Summary of the method: as §1

[5] = compound: CCCS(=O)(=O)Nc1ccc(F)c(C(=O)c2c[nH]c3ncc(Cl)cc23)c1F
Summary of the method: as §1

[6] = compound: CCCc1cc(C)[nH]c(=O)c1CNC(=O)c1cc(-c2ccnc(N3CCN(C)CC3)c2)cc2c1cnn2C(C)C
Summary of the method: as §1

givinostat = compound: CCN(CC)Cc1ccc2cc(COC(=O)Nc3ccc(C(=O)NO)cc3)ccc2c1 [givinostat]
Summary of the method: as §1

barasertib = compound: CCN(CCCOc1ccc2c(Nc3cc(CC(=O)Nc4cccc(F)c4)[nH]n3)ncnc2c1)CCOP(=O)(O)O [barasertib]
Summary of the method: as §1

[7] = compound: CC[C@@H]1C(=O)N(C)c2cnc(Nc3ccc(C(=O)NC4CCN(C)CC4)cc3OC)nc2N1C1CCCC1
Summary of the method: as §1

volasertib = compound: CC[C@@H]1C(=O)N(C)c2cnc(Nc3ccc(C(=O)N[C@H]4CC[C@H](N5CCN(CC6CC6)CC5)CC4)cc3OC)nc2N1C(C)C [volasertib]
Summary of the method: as §1

[8] = compound: CC[C@H](C)N1C=C(C2=C(C=C(C=C21)C3=CN=C(C=C3)N4CCNCC4)C(=O)NCC5=C(C=C(NC5=O)C)C)C
Summary of the method: as §1

epoxomicin = compound: CC[C@H](C)[C@@H](C(=O)N[C@@H]([C@@H](C)O)C(=O)N[C@@H](CC(C)C)C(=O)[C@]1(CO1)C)NC(=O)[C@H]([C@@H](C)CC)N(C)C(=O)C [epoxomicin]
Summary of the method: as §1

[9] = compound: CCn1c(C(=O)N(C2CC2)C2CC2)cc2c3c(ncn3C)c(Nc3cc(C)n(C)n3)nc21
Summary of the method: as §1

[10] = compound: CCn1cc(-c2ccnc3[nH]c(-c4cccc(CN(C)C)c4)cc23)c(-c2ccc(NC(=O)N(C)C)cc2)n1
Summary of the method: as §1

[11] = compound: CN(C)CC(=O)Nc1ccc2[nH]c(=O)c3ccccc3c2c1
Summary of the method: as §1

rosiglitazone = compound: CN(CCOC1=CC=C(C=C1)C[C@H]2C(=O)NC(=O)S2)C3=CC=CC=N3 (racemic) [rosiglitazone]
Summary of the method: as §1

[12] = compound: CN1C2=C(C3=C1C(=O)N(N=C3)CC4=CC(=CC=C4)N)SC(=C2)S(=O)C
Summary of the method: as §1

[13] = compound: CN1CCC(CNc2ccc3ncc(-c4cccc(OC(F)(F)F)c4)n3n2)CC1
Summary of the method: as §1

Measured: log2 fold change

ALG2 (UniProt Q9H553)
inactive: [1] 0.001 | [2] -0.02 | [3] 0 | [4] 0.005 | Nexturastat A -0.062 | vemurafenib 0.04 | [5] 0.031 | [6] 0.018 | givinostat 0.009 | barasertib 0.055 | [7] 0.025 | volasertib -0.152 | [8] 0.023 | epoxomicin -0.003 | [9] -0.011 | [10] 0.001 | [11] 0.056 | rosiglitazone 0.032 | [12] -0.013 | [13] -0.081

ALDH1A1 (UniProt P00352)
inactive: [1] 0.032 | [2] -0.041 | [3] 0.038 | [4] 0.035 | Nexturastat A -0.079 | vemurafenib 0.003 | [5] 0.013 | [6] 0.004 | givinostat 0.035 | barasertib -0.015 | [7] 0.029 | volasertib 0.034 | [8] -0.004 | epoxomicin -0.025 | [9] -0.029 | [10] -0.033 | [11] -0.011 | rosiglitazone 0.038 | [12] -0.075 | [13] -0.051

AKAP1 (UniProt Q92667)
inactive: [1] 0.004 | [2] 0.003 | [3] -0.033 | [4] -0.081 | Nexturastat A 0.2 | vemurafenib -0.01 | [5] 0.057 | [6] 0.115 | givinostat 0.065 | barasertib -0.008 | [7] 0.041 | volasertib -0.077 | [8] 0.112 | epoxomicin -0.102 | [9] -0.063 | [10] 0.041 | [11] 0.025 | rosiglitazone 0.001 | [12] 0.165 | [13] 0.026

ADO (UniProt Q96SZ5)
inactive: [1] -0.022 | [2] 0.058 | [3] 0.033 | [4] -0.02 | Nexturastat A -0.001 | vemurafenib -0.024 | [5] -0.016 | [6] -0.061 | givinostat 0.032 | barasertib 0.029 | [7] -0.024 | volasertib 0.05 | [8] -0.04 | epoxomicin 0.021 | [9] -0.011 | [10] -0.019 | [11] 0.016 | rosiglitazone 0.013 | [12] -0.046 | [13] 0.047

AGL (UniProt P35573)
inactive: [1] 0.13 | [2] -0.012 | [3] -0.058 | [4] -0.03 | Nexturastat A 0.165 | vemurafenib -0.016 | [5] 0.011 | [6] 0.081 | givinostat 0.065 | barasertib -0.019 | [7] 0.206 | volasertib 0.288 | [8] 0.035 | epoxomicin -0.172 | [9] -0.007 | [10] 0.039 | [11] -0.058 | rosiglitazone 0.014 | [12] 0.172 | [13] 0.004

AK1 (UniProt P00568)
inactive: [1] 0.039 | [2] 0.009 | [3] -0.013 | [4] 0.013 | Nexturastat A -0.033 | vemurafenib 0.044 | [5] 0.05 | [6] -0.066 | givinostat -0.029 | barasertib 0.013 | [7] -0.03 | volasertib 0.052 | [8] 0.053 | epoxomicin 0.03 | [9] -0.002 | [10] -0.027 | [11] 0.04 | rosiglitazone 0.023 | [12] -0.074 | [13] -0.033

ALG9 isoform 3 (UniProt Q9H6U8)
inactive: [1] -0.044 | [2] 0.009 | [3] 0.004 | [4] -0.03 | Nexturastat A 0.006 | vemurafenib -0.028 | [5] -0.04 | [6] -0.009 | givinostat -0.005 | barasertib -0.008 | [7] -0.019 | volasertib -0.078 | [8] 0.002 | epoxomicin -0.014 | [9] -0.034 | [10] -0.024 | [11] -0.025 | rosiglitazone 0.059 | [12] 0.009 | [13] -0.022

ALDH4A1 (UniProt P30038)
inactive: [1] 0.043 | [2] 0.005 | [3] -0.012 | [4] 0.035 | Nexturastat A -0.035 | vemurafenib 0.013 | [5] 0.006 | [6] -0.01 | givinostat -0.04 | barasertib 0.01 | [7] 0.003 | volasertib 0.033 | [8] 0.037 | epoxomicin 0.05 | [9] 0.027 | [10] -0.005 | [11] 0.016 | rosiglitazone 0.014 | [12] -0.093 | [13] -0.004

AIMP2 (UniProt Q13155)
inactive: [1] -0.013 | [2] 0.038 | [3] -0.011 | [4] -0.092 | Nexturastat A 0.593 | vemurafenib -0.043 | [5] -0.004 | [6] 0.115 | givinostat 0.068 | barasertib -0.032 | [7] 0.099 | volasertib 0.097 | [8] 0.043 | epoxomicin -0.361 | [9] -0.218 | [10] 0.187 | [11] 0 | rosiglitazone -0.035 | [12] 0.424 | [13] 0.067

ALKBH3 (UniProt Q96Q83)
inactive: [1] -0.016 | [2] 0.013 | [3] 0.013 | [4] -0.031 | Nexturastat A 0.024 | vemurafenib 0.106 | [5] -0.044 | [6] 0.043 | givinostat -0.016 | barasertib 0.009 | [7] -0.053 | volasertib 0.028 | [8] -0.051 | epoxomicin 0.069 | [9] 0.02 | [10] 0.017 | [11] -0.145 | rosiglitazone 0 | [12] -0.069 | [13] -0.072

ALDOA isoform 2 (UniProt P04075)
inactive: [1] 0.036 | [2] 0.024 | [3] 0.015 | [4] 0.037 | Nexturastat A -0.065 | vemurafenib 0.034 | [5] 0.002 | [6] -0.078 | givinostat -0.015 | barasertib -0.004 | [7] -0.022 | volasertib 0.058 | [8] -0.049 | epoxomicin -0.004 | [9] 0.047 | [10] 0.013 | [11] -0.018 | rosiglitazone -0.005 | [12] -0.05 | [13] -0.01

AK4 (UniProt P27144)
inactive: [1] 0.019 | [2] -0.027 | [3] -0.017 | [4] -0.01 | Nexturastat A -0.008 | vemurafenib 0.032 | [5] -0.005 | [6] -0.042 | givinostat 0.017 | barasertib 0.003 | [7] 0.008 | volasertib 0.043 | [8] 0.012 | epoxomicin 0.032 | [9] 0.003 | [10] -0.017 | [11] -0.026 | rosiglitazone 0.041 | [12] -0.01 | [13] -0.007

ALDH1A2 (UniProt O94788)
inactive: [1] 0.021 | [2] 0.014 | [3] 0.011 | [4] 0.018 | Nexturastat A -0.076 | vemurafenib 0.011 | [5] 0.001 | [6] -0.04 | givinostat 0.003 | barasertib -0.005 | [7] -0.016 | volasertib 0.056 | [8] -0.011 | epoxomicin 0.017 | [9] -0.017 | [10] -0.057 | [11] -0.004 | rosiglitazone 0.029 | [12] -0.069 | [13] -0.011

ALG8 (UniProt Q9BVK2)
inactive: [1] 0.002 | [2] 0.023 | [3] 0.08 | [4] 0.097 | Nexturastat A -0.045 | vemurafenib 0.009 | [5] 0.074 | [6] -0.065 | givinostat -0.036 | barasertib -0.001 | [7] 0.016 | volasertib -0.206 | [8] 0.011 | epoxomicin -0.045 | [9] 0.039 | [10] 0.116 | [11] 0.021 | rosiglitazone 0.032 | [12] -0.023 | [13] -0.029

AHCY (UniProt P23526)
inactive: [1] 0.017 | [2] 0.011 | [3] 0.003 | [4] 0.017 | Nexturastat A -0.067 | vemurafenib -0.04 | [5] -0.031 | [6] -0.025 | givinostat -0.099 | barasertib 0.007 | [7] 0.028 | volasertib 0.054 | [8] -0.031 | epoxomicin -0.017 | [9] 0.009 | [10] -0.031 | [11] -0.051 | rosiglitazone 0.021 | [12] -0.032 | [13] -0.018

ALAD isoform 2 (UniProt P13716)
inactive: [1] -0.08 | [2] -0.022 | [3] -0.013 | [4] -0.015 | Nexturastat A -0.058 | vemurafenib 0.084 | [5] -0.04 | [6] -0.065 | givinostat -0.037 | barasertib -0.081 | [7] 0.06 | volasertib 0.108 | [8] 0.052 | epoxomicin 0.08 | [9] -0.03 | [10] 0.048 | [11] 0.039 | rosiglitazone 0.026 | [12] -0.042 | [13] 0.025
